Data on three molecules can be found in paper PMC4579058.

By UniProt entry, the sequences of proteins in these tests, tags left out.
UniProt Q9L9J3: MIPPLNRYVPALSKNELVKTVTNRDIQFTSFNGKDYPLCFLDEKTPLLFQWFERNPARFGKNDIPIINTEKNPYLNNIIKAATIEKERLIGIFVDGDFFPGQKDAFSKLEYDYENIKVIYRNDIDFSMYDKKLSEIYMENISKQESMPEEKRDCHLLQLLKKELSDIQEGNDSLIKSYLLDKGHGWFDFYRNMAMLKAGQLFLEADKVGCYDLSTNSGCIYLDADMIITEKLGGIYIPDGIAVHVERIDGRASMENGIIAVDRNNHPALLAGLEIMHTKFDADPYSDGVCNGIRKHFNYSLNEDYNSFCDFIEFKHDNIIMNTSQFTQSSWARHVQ

The target in test [1] is T1, Myc-TRIM32 (Mus musculus TRIM32 with an N-terminal Myc epitope tag), non-ubiquitinated form (Mus musculus) (UniProt Q8CH72).
T1 sequence: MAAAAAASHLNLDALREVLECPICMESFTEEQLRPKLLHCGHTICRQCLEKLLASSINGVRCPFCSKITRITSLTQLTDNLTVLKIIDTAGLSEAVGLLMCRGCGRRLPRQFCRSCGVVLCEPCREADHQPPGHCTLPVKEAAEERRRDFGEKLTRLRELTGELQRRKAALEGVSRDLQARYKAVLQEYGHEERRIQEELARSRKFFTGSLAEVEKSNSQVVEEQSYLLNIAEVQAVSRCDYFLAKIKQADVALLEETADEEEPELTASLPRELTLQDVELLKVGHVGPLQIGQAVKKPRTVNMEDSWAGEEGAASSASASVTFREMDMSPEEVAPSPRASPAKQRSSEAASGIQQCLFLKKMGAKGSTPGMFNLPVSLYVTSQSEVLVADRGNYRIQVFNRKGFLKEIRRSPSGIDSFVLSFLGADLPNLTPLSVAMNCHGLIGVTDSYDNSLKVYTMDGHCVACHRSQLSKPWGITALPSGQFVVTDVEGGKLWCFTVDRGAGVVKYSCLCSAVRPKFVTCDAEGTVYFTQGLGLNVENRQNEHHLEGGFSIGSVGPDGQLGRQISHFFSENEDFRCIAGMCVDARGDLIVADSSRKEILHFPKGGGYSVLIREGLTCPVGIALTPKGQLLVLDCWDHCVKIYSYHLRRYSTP
Description: co-IP; A431 cells co-transfected with Myc-TRIM32 and a GFP-SseK; mouse monoclonal anti-Myc antibody with Protein G agarose beads, overnight; anti-GFP immunoblot. On the technique in general: A western blot detects proteins with antibodies after separation by electrophoresis.

The target of test [2] is T2, GFP-SseK2 (Salmonella (S. Typhimurium)) (UniProt Q8ZNP4).
T2 sequence: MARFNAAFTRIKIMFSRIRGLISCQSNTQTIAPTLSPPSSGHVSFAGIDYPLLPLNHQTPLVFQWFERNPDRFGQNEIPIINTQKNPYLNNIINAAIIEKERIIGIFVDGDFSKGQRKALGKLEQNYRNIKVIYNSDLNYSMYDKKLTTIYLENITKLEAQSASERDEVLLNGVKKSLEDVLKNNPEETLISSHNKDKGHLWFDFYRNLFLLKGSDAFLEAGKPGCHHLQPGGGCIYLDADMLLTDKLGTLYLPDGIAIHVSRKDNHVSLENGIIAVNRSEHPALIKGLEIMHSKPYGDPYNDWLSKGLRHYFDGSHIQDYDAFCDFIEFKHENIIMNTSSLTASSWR
Description: co-IP; A431 cells transfected with GFP-SseK1, GFP-SseK2 or GFP-SseK3; GFP-nanotrap beads, 1 hr at 4°C; endogenous TRIM32 detected by anti-TRIM32 immunoblot.

Test [3] addresses GFP-SseK1 (Salmonella (S. Typhimurium)) (UniProt Q9L9J3). The description is as above.

These are yes or no findings as the source states them, for the method shown. In cells and extracts the contact can be indirect. For some of these results: Tags and fused reporters may be left off the sequences shown.

As for GFP-SseK1 (from UniProt Q9L9J3 1-336), the binding entry in test [1] is reported as “no binding”.
“TRIM32 (Tripartate Motif 32), endogenous, 72 kDa non-ubiquitinated form (from UniProt Q13049 1-653)”: the binding result in test [2] and in test [3] was “no binding” throughout.

B1: GFP-SseK2 (protein, UniProt Q8ZNP4 1-348)
chain: MARFNAAFTRIKIMFSRIRGLISCQSNTQTIAPTLSPPSSGHVSFAGIDYPLLPLNHQTPLVFQWFERNPDRFGQNEIPIINTQKNPYLNNIINAAIIEKERIIGIFVDGDFSKGQRKALGKLEQNYRNIKVIYNSDLNYSMYDKKLTTIYLENITKLEAQSASERDEVLLNGVKKSLEDVLKNNPEETLISSHNKDKGHLWFDFYRNLFLLKGSDAFLEAGKPGCHHLQPGGGCIYLDADMLLTDKLGTLYLPDGIAIHVSRKDNHVSLENGIIAVNRSEHPALIKGLEIMHSKPYGDPYNDWLSKGLRHYFDGSHIQDYDAFCDFIEFKHENIIMNTSSLTASSWR
As for B1, the binding result in test [1] is listed as “no binding”.
